This note sets out measurements from paper PMC5095516.

These are yes or no findings as the source states them, for the method shown. In cells and extracts the contact can be indirect. Binding can be weak; no strength is given. Tags and fused reporters may be left off the sequences shown.

The target in this assay is T1, FLAG-tagged Lfc (UniProt Q60875).
T1 sequence: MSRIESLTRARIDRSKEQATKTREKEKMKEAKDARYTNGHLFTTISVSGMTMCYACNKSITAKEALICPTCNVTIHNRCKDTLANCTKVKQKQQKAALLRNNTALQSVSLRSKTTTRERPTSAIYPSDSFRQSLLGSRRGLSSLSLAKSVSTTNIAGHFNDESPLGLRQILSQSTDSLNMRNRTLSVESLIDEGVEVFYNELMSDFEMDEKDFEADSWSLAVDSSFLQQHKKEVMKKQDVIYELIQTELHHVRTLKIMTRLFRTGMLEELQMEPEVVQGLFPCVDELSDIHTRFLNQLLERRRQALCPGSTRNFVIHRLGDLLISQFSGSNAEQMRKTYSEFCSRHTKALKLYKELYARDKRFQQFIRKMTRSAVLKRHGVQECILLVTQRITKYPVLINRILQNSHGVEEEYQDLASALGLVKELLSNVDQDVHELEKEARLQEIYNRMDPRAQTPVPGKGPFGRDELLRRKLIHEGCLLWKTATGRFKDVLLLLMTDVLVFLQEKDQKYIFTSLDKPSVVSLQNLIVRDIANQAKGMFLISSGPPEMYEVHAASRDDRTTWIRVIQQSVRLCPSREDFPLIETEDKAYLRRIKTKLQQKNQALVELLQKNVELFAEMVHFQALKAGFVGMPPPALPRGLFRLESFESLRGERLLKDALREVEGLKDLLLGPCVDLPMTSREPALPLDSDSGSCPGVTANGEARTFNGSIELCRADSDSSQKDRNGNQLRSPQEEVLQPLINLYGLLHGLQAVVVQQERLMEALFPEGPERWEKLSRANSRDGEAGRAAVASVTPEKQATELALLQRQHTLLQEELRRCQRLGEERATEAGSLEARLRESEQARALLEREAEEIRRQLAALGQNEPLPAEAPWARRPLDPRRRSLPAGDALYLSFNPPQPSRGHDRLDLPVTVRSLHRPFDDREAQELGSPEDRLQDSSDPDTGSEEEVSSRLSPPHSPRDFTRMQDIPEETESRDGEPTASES
As to the kind of experiment: co-IP; lysate of HEK293T cells co-expressing FLAG-Lfc and HA-RhoA incubated with recombinant GST-tagged CaMKv domains before the co-immunoprecipitation of Lfc and RhoA; only the binder purified.

Turning to “recombinant GST-tagged CaMKv CaM-binding domain (mouse) (domain or fragment)”, the binding entry is given as “binds”.
